{"source": "PubChem BioAssay AID652243 (Drosophila RNAi Screening Center, 2013)", "screen": "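Fly genes required for human androgen receptor driven transcription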 (primary screen)", "system": "Drosophila S2R+ cells", "knock-down reagent": "long dsRNA against Drosophila genes", "duration": "72 h (48 h, then 24 h hormone)", "treatment": "synthetic androgen R1881 at 10 nM for 24 h", "measured": "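Firefly light from an androgen-responsive reporter and Renilla control light per well, raw and unnormalised, for each of two replicates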", "reading the numbers": "firefly reporter light: higher = more light from androgen-responsive reporter; Renilla control light: higher = more constitutive control signal (cell number, transfection)", "hit rule": "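Hit when the log firefly-to-Renilla ratio dropped or increased by a fixed fold versus the mean of GFP or LacZ controls across duplicate plates; lowering cut given as 1.5 and as 3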", "meaning of the calls": "active = hit: reporter lowered or raised; inactive = no hit", "note": "The screen tested about 24,000 reagents; shown is a random part of those with a known target gene and a result. In the full data, 246 (1%) were called active. 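Plates not normalised; calls are printed but the firefly/Renilla ratio behind them is not deposited; fold cut for lowering reported inconsistently.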 Raw values are not corrected between plates. The numbers tell different reagents against one gene apart. Reagent sequences are not shown. The record does not give: the amount of reagent."}
{"gene": "Cubn (Cubilin)", "reagent": 1, "firefly reporter light, replicate 1": 68022, "firefly reporter light, replicate 2": 99439, "Renilla control light, replicate 1": 7.66e5, "Renilla control light, replicate 2": 7.65e5, "Outcome": "inactive"}
{"gene": "Cubn (Cubilin)", "reagent": 2, "firefly reporter light, replicate 1": 4.66e5, "firefly reporter light, replicate 2": 5.24e5, "Renilla control light, replicate 1": 9.04e5, "Renilla control light, replicate 2": 9.04e5, "Outcome": "inactive"}
{"gene": "CG2681", "reagent": 1, "firefly reporter light, replicate 1": 82442, "firefly reporter light, replicate 2": 1.15e5, "Renilla control light, replicate 1": 8.15e5, "Renilla control light, replicate 2": 7.63e5, "Outcome": "inactive"}
{"gene": "CG2681", "reagent": 2, "firefly reporter light, replicate 1": 9.87e5, "firefly reporter light, replicate 2": 8.00e5, "Renilla control light, replicate 1": 8.46e5, "Renilla control light, replicate 2": 7.56e5, "Outcome": "inactive"}

Limited to “firefly reporter light, replicate 1”, for 2 of the entries above:
CG2681 #1: 82442
CG2681 #2: 9.87e5

More records:
{"gene": "CG4836", "reagent": 1, "firefly reporter light, replicate 1": 79409, "firefly reporter light, replicate 2": 74528, "Renilla control light, replicate 1": 8.87e5, "Renilla control light, replicate 2": 7.18e5, "Outcome": "inactive"}
{"gene": "CG4836", "reagent": 2, "firefly reporter light, replicate 1": 5.85e5, "firefly reporter light, replicate 2": 6.04e5, "Renilla control light, replicate 1": 2.10e6, "Renilla control light, replicate 2": 1.38e6, "Outcome": "inactive"}
{"gene": "CG4836", "reagent": 3, "firefly reporter light, replicate 1": 7.31e5, "firefly reporter light, replicate 2": 8.04e5, "Renilla control light, replicate 1": 6.41e5, "Renilla control light, replicate 2": 7.15e5, "Outcome": "inactive"}
{"gene": "mgl (Megalin)", "reagent": 1, "firefly reporter light, replicate 1": 4.84e5, "firefly reporter light, replicate 2": 4.78e5, "Renilla control light, replicate 1": 3.30e6, "Renilla control light, replicate 2": 3.62e6, "Outcome": "inactive"}
{"gene": "mgl (Megalin)", "reagent": 2, "firefly reporter light, replicate 1": 63034, "firefly reporter light, replicate 2": 87718, "Renilla control light, replicate 1": 4.83e5, "Renilla control light, replicate 2": 5.32e5, "Outcome": "inactive"}
{"gene": "mgl (Megalin)", "reagent": 3, "firefly reporter light, replicate 1": 2.54e5, "firefly reporter light, replicate 2": 2.56e5, "Renilla control light, replicate 1": 3.19e6, "Renilla control light, replicate 2": 4.16e6, "Outcome": "inactive"}
{"gene": "mgl (Megalin)", "reagent": 4, "firefly reporter light, replicate 1": 18031, "firefly reporter light, replicate 2": 11082, "Renilla control light, replicate 1": 6090, "Renilla control light, replicate 2": 6228, "Outcome": "inactive"}
{"gene": "CG15628", "reagent": 1, "firefly reporter light, replicate 1": 17684, "firefly reporter light, replicate 2": 20474, "Renilla control light, replicate 1": 92333, "Renilla control light, replicate 2": 80830, "Outcome": "inactive"}
{"gene": "CG15628", "reagent": 2, "firefly reporter light, replicate 1": 64949, "firefly reporter light, replicate 2": 65256, "Renilla control light, replicate 1": 5.10e5, "Renilla control light, replicate 2": 9.09e5, "Outcome": "inactive"}
{"gene": "CG18598", "reagent": 1, "firefly reporter light, replicate 1": 97099, "firefly reporter light, replicate 2": 1.39e5, "Renilla control light, replicate 1": 1.50e6, "Renilla control light, replicate 2": 1.79e6, "Outcome": "inactive"}
